Measurements taken from the supplement of paper PMC9135407.
Several values for one entry are separate records, joined by “and”; a condition that tells them apart may be missing. Identical values can stand only once. Counter-ions that a name gives are not always drawn. ± gives the standard deviation of the averaged measurements. Some of the results follow. Plates or batches differ in their baseline, so values are only roughly comparable.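 Assay uses culture-activated primary human stellate myofibroblasts; lipid droplet recovery indicates inactivation. Measured: proportion of Hoechst-counted cells over a plate-specific Bodipy cutoff, duplicate wells, DMSO and nortriptyline as per-plate negative and positive controls. A hit scores, control-normalized, above the plate's top-tenth-percentile nortriptyline wells or ranks among its three best wells. Final well concentrations not reported.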

Test system: primary human hepatic stellate cells (donor 1)
Test: percent Bodipy-positive cells; higher = more lipid droplet accumulation
Settings: 48 h
Description: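 Primary lipid accumulation screen in primary human hepatic stellate cell myofibroblasts (donor 1, passage 8) in 384-well plates. 100 nL of library compound was pin-transferred into 30 µL medium in duplicate, and cells were treated for 48 h. The 'Scaled' score combines distance from plate baseline, toxicity and reproducibility penalties, and is normalised to nortriptyline (positive) and DMSO (negative) controls on each plate. A hit is defined as scaled >0.85 or among the top 3 wells per plate.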

[1] = library stock concentration: 400 uM
[2] = library stock concentration: 3.33 mM
[3] = library stock concentration: 10 mM
[4] = library stock concentration: 1 mM

COc1ccc(-c2ccc3ncc4c(c3c2)n(-c2ccc(N3CCNCC3)c(C(F)(F)F)c2)c(=O)n4C)cn1.O=C(O)/C=C\C(=O)O
percent Bodipy-positive cells [1]: 97.5 ± 1.8%

CCCCCCCCCCCCCCCCn1cc[n+](Cc2ccccc2)c1C [eEF-2 Kinase Inhibitor, NH125]
percent Bodipy-positive cells [2]: 35.3 ± 3.1%

CCCCCCCCCCCCCCCCn1cc[n+](Cc2ccccc2)c1C
percent Bodipy-positive cells (library stock concentration: 80 uM): 13.3 ± 9.3%
percent Bodipy-positive cells [1]: 16.4 ± 5.4%
percent Bodipy-positive cells (library stock concentration: 2 mM): 17.8 ± 7.1%
percent Bodipy-positive cells [3]: 100% and 94.9%

CC[P](CC)(CC)=[Au][S][C@@H]1O[C@H](COC(C)=O)[C@@H](OC(C)=O)[C@H](OC(C)=O)[C@H]1OC(C)=O [Auranofin]
percent Bodipy-positive cells (library stock concentration: 2.9 mM): 99.62 ± 0.54%

N[C@@H](Cn1ccc(=O)n(Cc2ccccc2C(=O)O)c1=O)C(=O)O
percent Bodipy-positive cells [3]: 6.4% and 4.55%

CCCCC[C@H](O)/C=C/[C@H]1[C@H](O)CC(=O)[C@@H]1C/C=C\CCCC(=O)O [Prostaglandin  E2]
percent Bodipy-positive cells [4]: 11.4 ± 8.3%

CCCCC[C@H](O)/C=C/[C@H]1[C@H](O)CC(=O)[C@@H]1C/C=C\CCCC(=O)O [Dinoprostone]
percent Bodipy-positive cells (library stock concentration: 5.7 mM): 9.28 ± 1.2%

CCCCC[C@H](O)/C=C/[C@H]1[C@H](O)CC(=O)[C@@H]1C/C=C\CCCC(=O)O [Prostaglandin E2]
percent Bodipy-positive cells [4]: 22.4 ± 7.3%
percent Bodipy-positive cells [3]: 6.94 ± 3%

CCCCC[C@H](O)/C=C/[C@@H]1[C@@H](C/C=C\CCCCCC(=O)O)[C@@H](O)C[C@H]1O [1a,1b-dihomo Prostaglandin F2.alpha.]
percent Bodipy-positive cells [4]: 14.9 ± 3.7%

CCCn1c(=O)c2[nH]c(C3CCCC3)nc2n(CCC)c1=O
percent Bodipy-positive cells [3]: 5.54 ± 0.22%

CCCn1c(=O)c2[nH]c(C3CCCC3)nc2n(CCC)c1=O [8-Cyclopentyl-1,3-dipropylxanthine]
percent Bodipy-positive cells [3]: 56.5 ± 6.8%

Cc1ccc(S(=O)(=O)/C=C/C#N)cc1
percent Bodipy-positive cells [3]: 90.6 ± 1.3%

CC(=O)N[C@@H](CSC/C=C(\C)CC/C=C(\C)CC/C=C(\C)CCC=C(C)C)C(=O)O [N-acetyl-S-geranylgeranyl-L-Cysteine]
percent Bodipy-positive cells [4]: 9.46% and 13.3%

O=C(CCNNC(=O)c1ccncc1)NCc1ccccc1
percent Bodipy-positive cells [3]: 8.07 ± 2.4%

O=C(CCNNC(=O)c1ccncc1)NCc1ccccc1 [Nialamide]
percent Bodipy-positive cells: 12.4 ± 2.7%
percent Bodipy-positive cells (library stock concentration: 6.7 mM): 7.84% and 14%
percent Bodipy-positive cells [3]: 55.4 ± 3.9%

Cc1cnc(-c2ccccc2C(C)C)nc1NCc1ccc(-n2ccnn2)cc1
percent Bodipy-positive cells [2]: 33.3 ± 6.8%
percent Bodipy-positive cells [3]: 39.9 ± 12%

N/C(=N\C(=O)c1nc(Cl)c(N)nc1N)NCc1ccccc1 [Benzamil hydrochloride]
percent Bodipy-positive cells: 40.1 ± 18%

N/C(=N\C(=O)c1nc(Cl)c(N)nc1N)NCc1ccccc1 [Benzamil]
percent Bodipy-positive cells (library stock concentration: 6.3 mM): 35.3 ± 8.9%

CSc1nc2cc(Cl)c(Oc3cccc(Cl)c3Cl)cc2[nH]1 [Triclabendazole]
percent Bodipy-positive cells [2]: 9.07 ± 2.2%
percent Bodipy-positive cells [3]: 33 ± 10%

CSc1nc2cc(Cl)c(Oc3cccc(Cl)c3Cl)cc2[nH]1
percent Bodipy-positive cells [3]: 9.97 ± 1.8%

Cl.O=C(CCCCCN1CCN(c2ccccc2-c2ccccc2)CC1)NC1CCCc2ccccc21 (centres undefined) [LP 12 hydrochloride hydrate]
percent Bodipy-positive cells [3]: 80.7 ± 2.2%
